PubChem BioAssay AID652259 | Drosophila RNAi Screening Center | 2013
The screen tested about 22,000 reagents; shown is an unselected part of those that have a named target and a result. Over the whole deposit, 233 (1.1%) are marked active. 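Light values are raw, unnormalised plate reads; the ratio scores behind the reporter calls were not deposited.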 The record does not give: the amount of reagent, the time to read-out, the dose of the treatment.

Aim: 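Knock-downs that push a Wingless-driven reporter up or down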 (primary screen)
Cell system: Drosophila clone 8 imaginal disc epithelial cells
Reagent: long dsRNA against Drosophila genes
Conditions: pathway stimulated by co-transfected Wingless expression plasmid
Read-out: 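Dual luciferase reads per well after Wingless plasmid stimulation: reporter firefly light and Renilla control light; activity is firefly divided by Renilla, a ratio not deposited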
Direction: firefly reporter light: higher = more Wg reporter light, before normalisation; Renilla control light: higher = more transfected or surviving cells
Rule for the call: 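a knock-down is a candidate when at least two out of four statistical tests show it departing from its plate mean; one test alone signals a weak candidate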
Calls: active = candidate regulator (raises or lowers reporter); inactive = not a candidate

Tsen34 [DRSC22932] — firefly reporter light, replicate 1: 6.79e5; firefly reporter light, replicate 2: 5.86e5; Renilla control light, replicate 1: 2.85e5; Renilla control light, replicate 2: 2.79e5; Outcome: inactive
fzr [DRSC18781] — firefly reporter light, replicate 1: 19683; Renilla control light, replicate 1: 7410; Outcome: inactive
Dic61B [DRSC08588] — firefly reporter light, replicate 1: 8467; Renilla control light, replicate 1: 3185; Outcome: inactive
Gale [DRSC08234] — firefly reporter light, replicate 1: 15702; Renilla control light, replicate 1: 5259; Outcome: inactive
CG13843 [DRSC14693] — firefly reporter light, replicate 1: 19584; Renilla control light, replicate 1: 12010; Outcome: inactive
CG34196 [DRSC05704] — firefly reporter light, replicate 1: 20216; Renilla control light, replicate 1: 12524; Outcome: inactive
Mgat3 [DRSC01305] — firefly reporter light, replicate 1: 24546; Renilla control light, replicate 1: 9865; Outcome: inactive
Neurl4 [DRSC10638] — firefly reporter light, replicate 1: 3936; Renilla control light, replicate 1: 1612; Outcome: inactive
Larp4B [DRSC08192] — reporter change call, replicate 1: Wg reporter activity raised; firefly reporter light, replicate 1: 5412; Renilla control light, replicate 1: 1275; Outcome: inactive
Alg11 [DRSC11647] — firefly reporter light, replicate 1: 10544; Renilla control light, replicate 1: 5588; Outcome: inactive
Rh3 [DRSC16822] — firefly reporter light, replicate 1: 2449; firefly reporter light, replicate 2: 8203; Renilla control light, replicate 1: 982; Renilla control light, replicate 2: 1940; Outcome: inactive
DIP1 [DRSC20818] — firefly reporter light, replicate 1: 24902; firefly reporter light, replicate 2: 6.08e5; Renilla control light, replicate 1: 10842; Renilla control light, replicate 2: 2.36e5; Outcome: inactive
RNaseP:RNA [DRSC22967] — firefly reporter light, replicate 1: 5.09e5; firefly reporter light, replicate 2: 6.45e5; Renilla control light, replicate 1: 2.63e5; Renilla control light, replicate 2: 2.63e5; Outcome: inactive
CG9643 [DRSC00722] — firefly reporter light, replicate 1: 2065; firefly reporter light, replicate 2: 8354; Renilla control light, replicate 1: 924; Renilla control light, replicate 2: 2049; Outcome: inactive
yip3 [DRSC04724] — firefly reporter light, replicate 1: 1837; firefly reporter light, replicate 2: 5797; Renilla control light, replicate 1: 336; Renilla control light, replicate 2: 2183; Outcome: inactive
CG30287 [DRSC03875] — firefly reporter light, replicate 1: 12998; Renilla control light, replicate 1: 7248; Outcome: inactive
JMJD6 [DRSC15787] — firefly reporter light, replicate 1: 3897; firefly reporter light, replicate 2: 7288; Renilla control light, replicate 1: 1250; Renilla control light, replicate 2: 2791; Outcome: inactive
EMC10 [DRSC11850] — firefly reporter light, replicate 1: 16208; Renilla control light, replicate 1: 6009; Outcome: inactive
Ns3 [DRSC18607] — firefly reporter light, replicate 1: 5016; firefly reporter light, replicate 2: 9925; Renilla control light, replicate 1: 1792; Renilla control light, replicate 2: 3573; Outcome: inactive
CycB3 [DRSC16618] — firefly reporter light, replicate 1: 16893; Renilla control light, replicate 1: 12744; Outcome: inactive
CG34251 [DRSC09498] — firefly reporter light, replicate 1: 3573; Renilla control light, replicate 1: 1004; Outcome: inactive
CG34251 [DRSC09500] — firefly reporter light, replicate 1: 2934; Renilla control light, replicate 1: 1368; Outcome: inactive
nompB [DRSC03701] — firefly reporter light, replicate 1: 2187; firefly reporter light, replicate 2: 5757; Renilla control light, replicate 1: 739; Renilla control light, replicate 2: 2336; Outcome: inactive
nompB [DRSC03731] — firefly reporter light, replicate 1: 5050; firefly reporter light, replicate 2: 10167; Renilla control light, replicate 1: 1344; Renilla control light, replicate 2: 4496; Outcome: inactive
VhaAC39-2 [DRSC15609] — firefly reporter light, replicate 1: 16587; Renilla control light, replicate 1: 17394; Outcome: inactive
